This experiment has as its target purified KhpB protein (Deinococcus radiodurans) (UniProt Q9RXR1). Kind of experiment: SEC. A general note: In gel filtration, larger molecules generally elute earlier.

Results are given in words; binding and its absence hold for the method and conditions named. A result given as binding can be weak or reduced; the word gives no strength.

Take “purified KhpA protein (from UniProt Q9RSW2)”: the binding result was “binds”.
